Test results: the supplement of paper PMC10849652
This is one part of the list.

Chains of the proteins cited; added tags and fusions are not shown. Lines headed by an entry give the natural chain unless they say otherwise; changes in a name come on top.
UniProt P23378: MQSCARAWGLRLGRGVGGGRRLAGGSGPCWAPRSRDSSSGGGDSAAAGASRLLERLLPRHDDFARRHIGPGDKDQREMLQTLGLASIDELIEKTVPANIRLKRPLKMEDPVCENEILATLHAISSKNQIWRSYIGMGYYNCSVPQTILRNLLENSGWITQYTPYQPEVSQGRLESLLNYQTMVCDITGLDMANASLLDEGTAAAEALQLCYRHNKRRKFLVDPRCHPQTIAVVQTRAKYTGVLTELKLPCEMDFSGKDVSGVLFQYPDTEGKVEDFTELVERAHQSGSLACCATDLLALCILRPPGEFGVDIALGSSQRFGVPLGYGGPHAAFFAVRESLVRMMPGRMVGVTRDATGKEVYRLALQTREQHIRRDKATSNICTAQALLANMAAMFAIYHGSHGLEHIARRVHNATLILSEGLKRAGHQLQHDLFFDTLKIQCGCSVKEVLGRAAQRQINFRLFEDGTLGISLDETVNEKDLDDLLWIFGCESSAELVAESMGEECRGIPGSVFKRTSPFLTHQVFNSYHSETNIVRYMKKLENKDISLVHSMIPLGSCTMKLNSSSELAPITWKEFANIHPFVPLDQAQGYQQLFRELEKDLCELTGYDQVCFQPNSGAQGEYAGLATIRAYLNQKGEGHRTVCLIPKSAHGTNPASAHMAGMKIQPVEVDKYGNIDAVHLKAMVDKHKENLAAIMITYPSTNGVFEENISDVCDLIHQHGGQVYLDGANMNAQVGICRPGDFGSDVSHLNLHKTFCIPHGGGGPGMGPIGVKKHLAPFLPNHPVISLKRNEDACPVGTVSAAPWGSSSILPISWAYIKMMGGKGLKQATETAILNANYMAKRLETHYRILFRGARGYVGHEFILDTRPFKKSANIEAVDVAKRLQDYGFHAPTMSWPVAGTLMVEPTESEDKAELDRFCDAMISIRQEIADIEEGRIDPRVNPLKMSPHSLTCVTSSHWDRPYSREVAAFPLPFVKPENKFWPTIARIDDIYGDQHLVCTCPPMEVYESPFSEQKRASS
UniProt Q9UBI6: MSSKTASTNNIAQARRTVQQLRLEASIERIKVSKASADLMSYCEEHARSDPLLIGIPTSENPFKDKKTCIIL
UniProt Q96I76: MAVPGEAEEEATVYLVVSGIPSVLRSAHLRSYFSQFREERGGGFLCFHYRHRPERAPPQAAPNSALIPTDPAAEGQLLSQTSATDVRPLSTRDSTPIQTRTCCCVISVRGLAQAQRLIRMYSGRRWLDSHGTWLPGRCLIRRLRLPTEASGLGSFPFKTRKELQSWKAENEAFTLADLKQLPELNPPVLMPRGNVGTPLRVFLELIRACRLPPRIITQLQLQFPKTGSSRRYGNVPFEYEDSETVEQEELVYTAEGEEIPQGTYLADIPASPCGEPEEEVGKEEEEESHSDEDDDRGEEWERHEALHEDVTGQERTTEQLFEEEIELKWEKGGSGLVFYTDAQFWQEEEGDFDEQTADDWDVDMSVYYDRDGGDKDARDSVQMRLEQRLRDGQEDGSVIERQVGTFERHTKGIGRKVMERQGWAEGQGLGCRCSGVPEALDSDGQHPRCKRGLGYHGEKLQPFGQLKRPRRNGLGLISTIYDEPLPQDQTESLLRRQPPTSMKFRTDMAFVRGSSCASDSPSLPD
UniProt Q9BQQ3: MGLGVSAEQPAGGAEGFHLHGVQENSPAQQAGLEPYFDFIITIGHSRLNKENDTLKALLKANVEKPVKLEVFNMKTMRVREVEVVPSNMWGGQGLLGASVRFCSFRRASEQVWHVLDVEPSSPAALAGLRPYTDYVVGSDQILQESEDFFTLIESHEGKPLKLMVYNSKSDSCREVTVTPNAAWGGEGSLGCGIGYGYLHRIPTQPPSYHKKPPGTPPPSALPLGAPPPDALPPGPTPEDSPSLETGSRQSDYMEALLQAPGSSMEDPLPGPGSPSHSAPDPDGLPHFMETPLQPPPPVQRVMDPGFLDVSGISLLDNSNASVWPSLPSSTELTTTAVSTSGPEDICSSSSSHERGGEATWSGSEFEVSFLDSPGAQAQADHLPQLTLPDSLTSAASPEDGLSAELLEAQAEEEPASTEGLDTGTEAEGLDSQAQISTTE
UniProt P81274: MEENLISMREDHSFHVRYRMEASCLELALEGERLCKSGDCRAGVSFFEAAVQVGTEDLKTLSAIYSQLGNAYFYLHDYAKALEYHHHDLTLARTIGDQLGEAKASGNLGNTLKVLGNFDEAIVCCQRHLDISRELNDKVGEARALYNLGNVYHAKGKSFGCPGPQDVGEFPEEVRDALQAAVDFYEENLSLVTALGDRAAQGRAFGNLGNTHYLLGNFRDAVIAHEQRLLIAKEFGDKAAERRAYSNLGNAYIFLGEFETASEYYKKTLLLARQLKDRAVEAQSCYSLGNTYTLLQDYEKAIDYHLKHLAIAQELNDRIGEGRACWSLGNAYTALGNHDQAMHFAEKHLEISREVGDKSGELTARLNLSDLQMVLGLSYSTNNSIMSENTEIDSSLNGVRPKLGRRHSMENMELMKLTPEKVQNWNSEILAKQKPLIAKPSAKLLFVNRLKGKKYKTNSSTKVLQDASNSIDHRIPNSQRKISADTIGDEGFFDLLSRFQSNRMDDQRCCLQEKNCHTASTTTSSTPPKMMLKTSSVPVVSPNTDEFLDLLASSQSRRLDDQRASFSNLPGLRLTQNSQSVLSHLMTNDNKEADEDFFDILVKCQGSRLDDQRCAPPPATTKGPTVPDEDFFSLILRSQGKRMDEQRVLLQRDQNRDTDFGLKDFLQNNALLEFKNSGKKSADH
UniProt Q8WWB7: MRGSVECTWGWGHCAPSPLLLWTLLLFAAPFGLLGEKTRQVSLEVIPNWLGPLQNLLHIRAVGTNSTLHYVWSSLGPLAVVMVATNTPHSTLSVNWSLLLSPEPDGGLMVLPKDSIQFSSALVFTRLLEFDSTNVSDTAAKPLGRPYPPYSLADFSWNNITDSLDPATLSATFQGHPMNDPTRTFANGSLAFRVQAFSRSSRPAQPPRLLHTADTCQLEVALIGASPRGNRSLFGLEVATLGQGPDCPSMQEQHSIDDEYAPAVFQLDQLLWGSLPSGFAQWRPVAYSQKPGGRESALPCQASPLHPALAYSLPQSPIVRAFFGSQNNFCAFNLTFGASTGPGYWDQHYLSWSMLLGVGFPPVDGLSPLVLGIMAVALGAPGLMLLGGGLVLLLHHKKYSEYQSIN
UniProt Q8TF64: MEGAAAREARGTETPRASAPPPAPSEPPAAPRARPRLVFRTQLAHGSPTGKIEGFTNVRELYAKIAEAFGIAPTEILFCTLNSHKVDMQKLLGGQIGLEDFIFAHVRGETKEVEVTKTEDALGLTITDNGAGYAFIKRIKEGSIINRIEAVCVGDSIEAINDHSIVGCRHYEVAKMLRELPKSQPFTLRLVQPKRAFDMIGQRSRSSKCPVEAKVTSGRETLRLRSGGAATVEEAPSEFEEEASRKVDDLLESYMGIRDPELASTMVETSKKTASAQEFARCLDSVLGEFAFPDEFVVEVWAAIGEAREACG
UniProt Q03113, whole entry, looked up: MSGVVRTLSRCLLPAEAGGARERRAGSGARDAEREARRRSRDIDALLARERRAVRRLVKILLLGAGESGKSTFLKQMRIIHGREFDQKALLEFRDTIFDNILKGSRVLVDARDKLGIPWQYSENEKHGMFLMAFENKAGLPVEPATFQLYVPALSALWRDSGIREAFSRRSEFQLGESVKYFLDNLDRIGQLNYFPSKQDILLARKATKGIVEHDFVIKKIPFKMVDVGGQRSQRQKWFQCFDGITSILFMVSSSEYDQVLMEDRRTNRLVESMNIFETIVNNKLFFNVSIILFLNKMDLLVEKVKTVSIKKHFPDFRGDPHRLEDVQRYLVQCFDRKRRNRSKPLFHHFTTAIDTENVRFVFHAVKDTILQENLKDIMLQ
UniProt Q9NU53: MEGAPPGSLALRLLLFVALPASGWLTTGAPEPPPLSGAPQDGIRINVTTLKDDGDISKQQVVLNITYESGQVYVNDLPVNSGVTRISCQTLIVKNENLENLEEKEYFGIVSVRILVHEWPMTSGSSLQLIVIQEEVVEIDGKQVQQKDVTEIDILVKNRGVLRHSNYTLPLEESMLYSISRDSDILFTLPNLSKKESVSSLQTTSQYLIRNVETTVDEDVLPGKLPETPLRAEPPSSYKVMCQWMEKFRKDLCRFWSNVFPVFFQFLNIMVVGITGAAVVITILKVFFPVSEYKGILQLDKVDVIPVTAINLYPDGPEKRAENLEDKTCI
UniProt O94923: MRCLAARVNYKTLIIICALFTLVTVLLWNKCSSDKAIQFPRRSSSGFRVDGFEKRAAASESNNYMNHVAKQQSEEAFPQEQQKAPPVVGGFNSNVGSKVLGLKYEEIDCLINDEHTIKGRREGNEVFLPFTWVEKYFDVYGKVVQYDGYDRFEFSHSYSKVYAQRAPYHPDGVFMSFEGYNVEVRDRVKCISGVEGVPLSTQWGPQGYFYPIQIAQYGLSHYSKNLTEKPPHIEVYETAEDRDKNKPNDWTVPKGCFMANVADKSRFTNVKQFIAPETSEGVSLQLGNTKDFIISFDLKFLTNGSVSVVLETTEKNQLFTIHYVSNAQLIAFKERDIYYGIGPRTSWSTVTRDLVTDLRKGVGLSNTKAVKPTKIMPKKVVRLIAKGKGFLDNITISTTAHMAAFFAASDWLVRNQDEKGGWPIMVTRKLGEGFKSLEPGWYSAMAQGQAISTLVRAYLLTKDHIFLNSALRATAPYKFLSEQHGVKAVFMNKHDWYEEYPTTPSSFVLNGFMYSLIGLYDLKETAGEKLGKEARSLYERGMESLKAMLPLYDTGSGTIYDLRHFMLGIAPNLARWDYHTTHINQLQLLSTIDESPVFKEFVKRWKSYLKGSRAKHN
UniProt Q9H9Y4: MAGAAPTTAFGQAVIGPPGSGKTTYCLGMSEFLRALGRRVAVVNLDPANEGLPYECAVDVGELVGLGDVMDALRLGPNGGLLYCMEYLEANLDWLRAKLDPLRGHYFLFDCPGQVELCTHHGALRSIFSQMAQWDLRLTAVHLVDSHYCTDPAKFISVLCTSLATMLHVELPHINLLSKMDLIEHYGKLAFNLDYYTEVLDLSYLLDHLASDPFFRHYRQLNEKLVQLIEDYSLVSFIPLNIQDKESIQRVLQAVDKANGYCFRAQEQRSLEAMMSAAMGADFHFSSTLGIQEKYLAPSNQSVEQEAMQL
UniProt O60234, whole entry, looked up: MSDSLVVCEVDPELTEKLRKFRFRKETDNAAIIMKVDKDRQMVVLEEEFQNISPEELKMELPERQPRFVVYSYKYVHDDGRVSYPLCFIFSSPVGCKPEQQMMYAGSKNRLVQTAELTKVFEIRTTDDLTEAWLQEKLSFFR
UniProt Q9NQ84: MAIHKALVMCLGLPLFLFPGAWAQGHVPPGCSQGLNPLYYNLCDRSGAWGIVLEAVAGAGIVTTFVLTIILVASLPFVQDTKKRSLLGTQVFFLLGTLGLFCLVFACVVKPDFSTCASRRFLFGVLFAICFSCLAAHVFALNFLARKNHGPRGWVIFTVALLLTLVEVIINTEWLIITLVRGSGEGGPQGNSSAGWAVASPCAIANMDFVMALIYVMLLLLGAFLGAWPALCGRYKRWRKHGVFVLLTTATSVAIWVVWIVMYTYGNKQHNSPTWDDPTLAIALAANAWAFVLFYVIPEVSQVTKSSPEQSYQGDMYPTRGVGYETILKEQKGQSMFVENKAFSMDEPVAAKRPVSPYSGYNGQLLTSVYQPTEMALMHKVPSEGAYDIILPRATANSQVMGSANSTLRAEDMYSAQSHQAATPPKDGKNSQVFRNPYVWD
UniProt Q15743: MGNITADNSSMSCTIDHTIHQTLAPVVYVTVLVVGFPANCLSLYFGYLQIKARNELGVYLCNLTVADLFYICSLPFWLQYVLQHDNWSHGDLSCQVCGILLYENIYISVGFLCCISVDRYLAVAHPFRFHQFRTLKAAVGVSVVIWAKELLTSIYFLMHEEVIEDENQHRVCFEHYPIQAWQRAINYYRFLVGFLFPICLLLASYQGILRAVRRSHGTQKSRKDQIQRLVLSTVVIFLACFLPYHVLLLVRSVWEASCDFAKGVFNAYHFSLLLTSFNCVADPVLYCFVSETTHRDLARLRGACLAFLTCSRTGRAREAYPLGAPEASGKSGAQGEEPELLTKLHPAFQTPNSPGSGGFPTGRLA
UniProt Q6ZS86: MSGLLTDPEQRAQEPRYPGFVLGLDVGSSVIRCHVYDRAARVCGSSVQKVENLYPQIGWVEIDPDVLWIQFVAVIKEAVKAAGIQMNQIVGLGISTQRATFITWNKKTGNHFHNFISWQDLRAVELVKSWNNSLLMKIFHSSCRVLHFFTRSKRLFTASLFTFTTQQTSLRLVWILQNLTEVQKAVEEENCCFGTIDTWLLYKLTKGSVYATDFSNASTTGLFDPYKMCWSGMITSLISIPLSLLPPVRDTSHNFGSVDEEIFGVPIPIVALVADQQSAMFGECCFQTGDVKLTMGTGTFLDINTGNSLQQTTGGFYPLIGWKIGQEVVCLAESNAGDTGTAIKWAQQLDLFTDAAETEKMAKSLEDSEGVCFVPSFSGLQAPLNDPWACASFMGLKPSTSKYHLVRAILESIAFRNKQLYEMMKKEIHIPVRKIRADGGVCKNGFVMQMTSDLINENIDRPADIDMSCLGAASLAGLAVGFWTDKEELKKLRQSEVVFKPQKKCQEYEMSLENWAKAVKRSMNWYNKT

Columns and labels:
Assay in all cases: log2 fold change, soluble protein after heating vs DMSO (PISA); higher = thermal stabilisation; K562 lysate, 10 uM; active = over 0.2 and 3.5 SD of the protein, either way, in both replicates (recomputed)
[1] = compound: CCn1c(C(=O)N(C2CC2)C2CC2)cc2c3c(ncn3C)c(Nc3cc(C)n(C)n3)nc21
Summary of the method: (§1)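 Quantification was by TMTpro 16plex LC-MS/MS with equalised channel sums, applied to the supernatant after 21,000xg for 90 min. Samples were crude K562 extract at 1 mg/mL protein in PBS pH 7.4 with 1 mM MgCl2, treated with 10 μM compound for 30 min, heated for 3 min across 48°C-58°C, pooled and brought to 0.5% NP-40 at 4°C. Values are log-two fold changes in thermal stability relative to solvent controls, from duplicates.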

sotrastaurin = compound: CN1CCN(c2nc(C3=C(c4c[nH]c5ccccc45)C(=O)NC3=O)c3ccccc3n2)CC1 [sotrastaurin]
Summary of the method: as §1

[2] = compound: CCn1cc(-c2ccnc3[nH]c(-c4cccc(CN(C)C)c4)cc23)c(-c2ccc(NC(=O)N(C)C)cc2)n1
Summary of the method: as §1

[3] = compound: CN1CCC(CNc2ccc3ncc(-c4cccc(OC(F)(F)F)c4)n3n2)CC1
Summary of the method: as §1

barasertib = compound: CCN(CCCOc1ccc2c(Nc3cc(CC(=O)Nc4cccc(F)c4)[nH]n3)ncnc2c1)CCOP(=O)(O)O [barasertib]
Summary of the method: as §1

saracatinib = compound: CN1CCN(CCOc2cc(OC3CCOCC3)c3c(Nc4c(Cl)ccc5c4OCO5)ncnc3c2)CC1 [saracatinib]
Summary of the method: as §1

vemurafenib = compound: CCCS(=O)(=O)Nc1ccc(F)c(C(=O)c2c[nH]c3ncc(-c4ccc(Cl)cc4)cc23)c1F [vemurafenib]
Summary of the method: as §1

[4] = compound: CCCS(=O)(=O)Nc1ccc(F)c(C(=O)c2c[nH]c3ncc(Cl)cc23)c1F
Summary of the method: as §1

[5] = compound: CC[C@@H]1C(=O)N(C)c2cnc(Nc3ccc(C(=O)NC4CCN(C)CC4)cc3OC)nc2N1C1CCCC1
Summary of the method: as §1

volasertib = compound: CC[C@@H]1C(=O)N(C)c2cnc(Nc3ccc(C(=O)N[C@H]4CC[C@H](N5CCN(CC6CC6)CC5)CC4)cc3OC)nc2N1C(C)C [volasertib]
Summary of the method: as §1

Measured: log2 fold change

GMEB1 isoform 2 (UniProt Q9Y692)
inactive: [1] -0.011 | sotrastaurin -0.056

GOLIM4 (UniProt F8W785)
inactive: [2] 0.124 | [3] -0.131 | sotrastaurin 0.021

GLDC (UniProt P23378)
inactive: barasertib 0.004

GOLGB1 isoform 4 (UniProt Q14789)
inactive: [1] -0.04 | saracatinib 0.058

GNAS (UniProt Q5JWF2)
inactive: vemurafenib -0.036 | [4] -0.003 | barasertib 0.023 | [5] -0.034 | volasertib -0.019 | [1] 0.051 | [2] 0.12 | [3] -0.077 | saracatinib 0.014 | sotrastaurin 0.012

GNG12 (UniProt Q9UBI6)
inactive: vemurafenib -0.084 | [2] -0.055 | [3] -0.007

GNS (UniProt P15586)
inactive: vemurafenib 0.004 | [4] 0.024 | barasertib -0.009 | [5] -0.015 | volasertib 0.016 | [1] 0.01 | [2] 0.061 | [3] 0.027 | saracatinib 0.016 | sotrastaurin -0.004

GPATCH3 (UniProt Q96I76)
inactive: [1] -0.026 | [2] 0.006 | [3] 0.111 | sotrastaurin -0.046

GORASP1 (UniProt Q9BQQ3)
inactive: vemurafenib 0.011 | [4] -0.016 | [5] -0.065 | volasertib 0.092 | [1] -0.019 | [2] -0.025 | [3] 0.08 | saracatinib 0.03 | sotrastaurin 0.016

GPSM2 (UniProt P81274)
inactive: vemurafenib 0.106 | [4] -0.015 | barasertib 0.055 | [5] 0.218 | volasertib 0.035 | [2] -0.345 | [3] 0.196 | saracatinib 0.023 | sotrastaurin 0.042

GNAI1 (UniProt P63096)
inactive: [2] -0.098 | [3] 0.061

GNAS isoform 3 (UniProt P63092)
inactive: [4] 0.013 | volasertib 0 | [2] 0.227 | [3] -0.033 | sotrastaurin 0.095

GPSM1 (UniProt Q86YR5)
inactive: vemurafenib 0.093 | [5] -0.014 | sotrastaurin 0.017

GLMP (UniProt Q8WWB7)
inactive: vemurafenib 0.153 | [5] 0.071 | [1] 0.042 | saracatinib 0.139 | sotrastaurin -0.083

GNPTAB (UniProt Q3T906)
inactive: barasertib 0.136 | [1] 0.024 | [2] -0.01 | [3] -0.054 | saracatinib -0.048 | sotrastaurin 0.049

GPNMB (UniProt Q14956)
inactive: [4] 0.108 | barasertib 0.077 | volasertib 0.002 | [2] -0.634 | [3] 0.139 | saracatinib 0.096 | sotrastaurin -0.123

GPR180 (UniProt Q86V85)
inactive: sotrastaurin 0.084

GPRASP2 (UniProt Q96D09)
inactive: vemurafenib 0.045 | barasertib -0.121 | [5] 0.047 | [1] -0.006

GIPC3 (UniProt Q8TF64)
inactive: [4] -0.119 | barasertib 0.055 | [5] -0.15 | volasertib -0.041 | [1] -0.045 | [2] -0.01 | [3] 0.144 | saracatinib 0.029 | sotrastaurin 0.006

GNA12 (UniProt Q03113)
inactive: vemurafenib 0.196 | [4] -0.047 | barasertib 0.117 | [5] -0.17 | volasertib 0.01 | [1] -0.012 | saracatinib -0.048 | sotrastaurin -0.218

GNAS isoform 2 (UniProt Q5JWF2)
inactive: barasertib -0.135

GOSR1 (UniProt E9PCW1)
inactive: barasertib 0.486 | [1] 0.19 | [2] 0.096 | [3] 0.002 | saracatinib -0.057 | sotrastaurin -0.05

GIGYF1 (UniProt O75420)
inactive: vemurafenib 0.065 | [4] -0.059 | barasertib 0 | [5] 0.09 | volasertib -0.095 | [1] 0.071 | [2] -0.001 | [3] 0.031 | saracatinib 0.008 | sotrastaurin -0.012

GINM1 (UniProt Q9NU53)
inactive: [2] -0.903 | [3] 0.397 | sotrastaurin -0.041

GPATCH2L (UniProt Q9NWQ4)
inactive: [5] 0.064 | [1] -0.121 | saracatinib 0.036 | sotrastaurin -0.1

GOLGA8R (UniProt I6L899)
inactive: [4] 0.096 | barasertib -0.01 | volasertib 0.098 | [1] -0.241 | saracatinib 0.002 | sotrastaurin -0.152

GLRX (UniProt P35754)
inactive: vemurafenib 0.122 | [5] -0.151 | sotrastaurin 0.052

GLCE (UniProt O94923)
inactive: [4] -0.022 | barasertib 0.117 | [5] 0.048 | volasertib 0.108 | [1] -0.043 | [2] -0.063 | [3] -0.014 | saracatinib 0.063 | sotrastaurin -0.047

GNPNAT1 (UniProt Q96EK6)
inactive: vemurafenib -0.029 | [4] 0.04 | barasertib -0.023 | [5] 0 | volasertib 0.037 | [1] 0.005 | [2] 0.171 | [3] 0.024 | saracatinib -0.007 | sotrastaurin -0.148

GPAM (UniProt Q9HCL2)
inactive: [1] 0.149

GMIP (UniProt Q9P107)
inactive: vemurafenib 0.041 | [4] 0.048 | barasertib -0.024 | [5] -0.01 | volasertib 0 | [1] -0.005 | [2] -0.027 | [3] -0.004 | saracatinib 0.007 | sotrastaurin 0.034

GPN2 (UniProt Q9H9Y4)
inactive: vemurafenib -0.027 | [4] 0.026 | [5] -0.098 | volasertib -0.028 | [1] 0.072 | [2] 0.009 | [3] 0.019 | saracatinib 0.003 | sotrastaurin 0.021

GNB4 (UniProt Q9HAV0)
inactive: [4] 0.089 | barasertib -0.046 | [5] -0.018 | volasertib -0.036 | [1] 0.016 | [2] 0.001 | [3] 0.166 | saracatinib -0.165 | sotrastaurin -0.04

GOLGA4 (UniProt Q13439)
inactive: vemurafenib 0.135 | barasertib 0.583 | [5] 0.013 | [1] -0.071 | saracatinib -0.022 | sotrastaurin 0.037

GMFG (UniProt O60234)
inactive: vemurafenib -0.057 | [4] -0.016 | barasertib 0.043 | [5] 0.009 | volasertib 0.016 | [1] 0.086 | [2] -0.01 | [3] 0.04 | saracatinib -0.013 | sotrastaurin -0.017

GPRC5C isoform 2 (UniProt Q9NQ84)
inactive: [2] 0.018 | [3] 0.08

GKAP1 (UniProt Q5VSY0)
inactive: sotrastaurin 0.111

GPR68 (UniProt Q15743)
inactive: sotrastaurin -0.037

GPLD1 (UniProt P80108)
inactive: saracatinib 0.236 | sotrastaurin -0.13

2 successive records already listed, quoted:
GMFG (UniProt O60234)
inactive: vemurafenib -0.057 | [4] -0.016 | barasertib 0.043 | [5] 0.009 | volasertib 0.016 | [1] 0.086 | [2] -0.01 | [3] 0.04 | saracatinib -0.013 | sotrastaurin -0.017

GPRC5C isoform 2 (UniProt Q9NQ84)
inactive: [2] 0.018 | [3] 0.08

The list goes on:

GK5 (UniProt Q6ZS86)
inactive: sotrastaurin -0.09

Reprinted at random: two records from the list.
GK5 (UniProt Q6ZS86)
inactive: sotrastaurin -0.09

GKAP1 (UniProt Q5VSY0)
inactive: sotrastaurin 0.111
